We go through two molecules from article PMC10145367, “Acute and Transgenerational Effects of Non-Steroidal Anti-Inflammatory Drugs on Daphnia magna” (Toxics, 2023).

For the series, the system named is Daphnia magna. As to the kind of experiment: Acute toxicity (immobilization) of neonates, 24 h toxicity curves. As to conditions: 24 h toxicity curve, 4PL model.

Structures are written as SMILES.

Regarding `CC(C)Cc1ccc(C(C)C(=O)O)cc1` (centres unmarked) [Ibuprofen], the “Hill Slope” value is listed as 6.341.

Turning to `COc1ccc2c(c1)c(CC(=O)O)c(C)n2C(=O)c1ccc(Cl)cc1` [Indomethacin], the “Hill Slope” value was 4.731.
